Reference: PMC12799961
Results are given in words; binding and its absence hold for the method and conditions named. In cells and extracts the contact can be indirect. Some results given as binding are weak or reduced against the parent protein; the word gives no strength.

Chains of the proteins cited; added tags and fusions are not shown. Lines headed by an entry give the natural chain unless they say otherwise; changes in a name come on top.
UniProt Q9NZN5: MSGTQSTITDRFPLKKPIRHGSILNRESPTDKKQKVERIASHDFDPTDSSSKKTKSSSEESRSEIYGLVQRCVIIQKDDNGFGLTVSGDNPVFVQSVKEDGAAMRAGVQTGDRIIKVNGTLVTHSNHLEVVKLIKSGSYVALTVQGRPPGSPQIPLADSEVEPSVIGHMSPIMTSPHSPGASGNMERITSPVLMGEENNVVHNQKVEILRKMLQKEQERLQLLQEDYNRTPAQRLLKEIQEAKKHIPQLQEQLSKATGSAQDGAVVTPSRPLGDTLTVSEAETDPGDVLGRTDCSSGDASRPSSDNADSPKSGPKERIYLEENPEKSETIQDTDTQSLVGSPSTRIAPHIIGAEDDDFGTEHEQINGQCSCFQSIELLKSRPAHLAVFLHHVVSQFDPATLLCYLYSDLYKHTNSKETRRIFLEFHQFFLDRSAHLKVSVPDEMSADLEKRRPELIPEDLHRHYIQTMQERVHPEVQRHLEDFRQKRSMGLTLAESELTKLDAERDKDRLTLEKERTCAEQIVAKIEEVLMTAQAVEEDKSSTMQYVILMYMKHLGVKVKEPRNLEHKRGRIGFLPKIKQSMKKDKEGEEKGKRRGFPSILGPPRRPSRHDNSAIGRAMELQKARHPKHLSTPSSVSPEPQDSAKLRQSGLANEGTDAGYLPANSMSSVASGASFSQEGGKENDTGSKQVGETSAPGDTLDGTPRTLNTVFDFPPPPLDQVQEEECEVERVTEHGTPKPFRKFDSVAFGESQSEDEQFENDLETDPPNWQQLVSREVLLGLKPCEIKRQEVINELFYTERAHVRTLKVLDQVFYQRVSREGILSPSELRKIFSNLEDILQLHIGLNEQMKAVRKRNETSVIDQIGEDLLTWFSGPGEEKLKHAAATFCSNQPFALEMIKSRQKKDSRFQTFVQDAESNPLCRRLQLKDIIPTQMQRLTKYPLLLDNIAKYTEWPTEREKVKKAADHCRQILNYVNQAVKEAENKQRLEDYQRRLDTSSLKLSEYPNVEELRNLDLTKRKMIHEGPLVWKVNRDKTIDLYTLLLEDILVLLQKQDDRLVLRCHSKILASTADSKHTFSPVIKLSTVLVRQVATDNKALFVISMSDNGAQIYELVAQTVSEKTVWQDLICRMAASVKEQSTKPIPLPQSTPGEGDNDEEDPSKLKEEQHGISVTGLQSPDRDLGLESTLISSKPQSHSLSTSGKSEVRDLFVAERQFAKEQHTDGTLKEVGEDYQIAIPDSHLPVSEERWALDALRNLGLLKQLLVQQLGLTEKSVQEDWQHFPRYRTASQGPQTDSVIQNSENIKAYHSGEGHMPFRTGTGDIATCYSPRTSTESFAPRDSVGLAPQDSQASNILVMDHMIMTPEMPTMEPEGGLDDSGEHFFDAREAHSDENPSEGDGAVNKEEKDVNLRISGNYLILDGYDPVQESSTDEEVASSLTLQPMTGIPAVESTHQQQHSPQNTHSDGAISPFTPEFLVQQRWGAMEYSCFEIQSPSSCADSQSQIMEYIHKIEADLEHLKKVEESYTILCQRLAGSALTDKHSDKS

How the values were obtained:
Myc-LARG-S1288A = Myc-LARG-S1288A (UniProt Q9NZN5); experiment: co-IP; U87 MG cells transfected with Myc-LARG-WT or Myc-LARG-S1288A for 24 h, then with GFP-LARG-WT, 48 h more; Myc-tagged LARG immunoprecipitated, blot for GFP
[1] = biological target: Myc-LARG-WT (leukemia-associated RhoGEF, ARHGEF12, wild type) (UniProt Q9NZN5); experiment: as above

For “GFP-LARG-WT (from UniProt Q9NZN5 1-1544)”, the binding (Myc-LARG-S1288A) was “binds” and the binding [1] was “binds”.
